Experimental data from publication PMC5104429 (2016).
No constants are given. Whether binding was seen depends on the method and setting. For some of these results: In cells and extracts the contact can be indirect. Some results given as binding are weak or reduced against the parent protein; the word gives no strength.

Amino acid sequences for entries named in this document (tags omitted). A change or cut given only in a name is not applied to a line headed by its entry.
UniProt Q5S007: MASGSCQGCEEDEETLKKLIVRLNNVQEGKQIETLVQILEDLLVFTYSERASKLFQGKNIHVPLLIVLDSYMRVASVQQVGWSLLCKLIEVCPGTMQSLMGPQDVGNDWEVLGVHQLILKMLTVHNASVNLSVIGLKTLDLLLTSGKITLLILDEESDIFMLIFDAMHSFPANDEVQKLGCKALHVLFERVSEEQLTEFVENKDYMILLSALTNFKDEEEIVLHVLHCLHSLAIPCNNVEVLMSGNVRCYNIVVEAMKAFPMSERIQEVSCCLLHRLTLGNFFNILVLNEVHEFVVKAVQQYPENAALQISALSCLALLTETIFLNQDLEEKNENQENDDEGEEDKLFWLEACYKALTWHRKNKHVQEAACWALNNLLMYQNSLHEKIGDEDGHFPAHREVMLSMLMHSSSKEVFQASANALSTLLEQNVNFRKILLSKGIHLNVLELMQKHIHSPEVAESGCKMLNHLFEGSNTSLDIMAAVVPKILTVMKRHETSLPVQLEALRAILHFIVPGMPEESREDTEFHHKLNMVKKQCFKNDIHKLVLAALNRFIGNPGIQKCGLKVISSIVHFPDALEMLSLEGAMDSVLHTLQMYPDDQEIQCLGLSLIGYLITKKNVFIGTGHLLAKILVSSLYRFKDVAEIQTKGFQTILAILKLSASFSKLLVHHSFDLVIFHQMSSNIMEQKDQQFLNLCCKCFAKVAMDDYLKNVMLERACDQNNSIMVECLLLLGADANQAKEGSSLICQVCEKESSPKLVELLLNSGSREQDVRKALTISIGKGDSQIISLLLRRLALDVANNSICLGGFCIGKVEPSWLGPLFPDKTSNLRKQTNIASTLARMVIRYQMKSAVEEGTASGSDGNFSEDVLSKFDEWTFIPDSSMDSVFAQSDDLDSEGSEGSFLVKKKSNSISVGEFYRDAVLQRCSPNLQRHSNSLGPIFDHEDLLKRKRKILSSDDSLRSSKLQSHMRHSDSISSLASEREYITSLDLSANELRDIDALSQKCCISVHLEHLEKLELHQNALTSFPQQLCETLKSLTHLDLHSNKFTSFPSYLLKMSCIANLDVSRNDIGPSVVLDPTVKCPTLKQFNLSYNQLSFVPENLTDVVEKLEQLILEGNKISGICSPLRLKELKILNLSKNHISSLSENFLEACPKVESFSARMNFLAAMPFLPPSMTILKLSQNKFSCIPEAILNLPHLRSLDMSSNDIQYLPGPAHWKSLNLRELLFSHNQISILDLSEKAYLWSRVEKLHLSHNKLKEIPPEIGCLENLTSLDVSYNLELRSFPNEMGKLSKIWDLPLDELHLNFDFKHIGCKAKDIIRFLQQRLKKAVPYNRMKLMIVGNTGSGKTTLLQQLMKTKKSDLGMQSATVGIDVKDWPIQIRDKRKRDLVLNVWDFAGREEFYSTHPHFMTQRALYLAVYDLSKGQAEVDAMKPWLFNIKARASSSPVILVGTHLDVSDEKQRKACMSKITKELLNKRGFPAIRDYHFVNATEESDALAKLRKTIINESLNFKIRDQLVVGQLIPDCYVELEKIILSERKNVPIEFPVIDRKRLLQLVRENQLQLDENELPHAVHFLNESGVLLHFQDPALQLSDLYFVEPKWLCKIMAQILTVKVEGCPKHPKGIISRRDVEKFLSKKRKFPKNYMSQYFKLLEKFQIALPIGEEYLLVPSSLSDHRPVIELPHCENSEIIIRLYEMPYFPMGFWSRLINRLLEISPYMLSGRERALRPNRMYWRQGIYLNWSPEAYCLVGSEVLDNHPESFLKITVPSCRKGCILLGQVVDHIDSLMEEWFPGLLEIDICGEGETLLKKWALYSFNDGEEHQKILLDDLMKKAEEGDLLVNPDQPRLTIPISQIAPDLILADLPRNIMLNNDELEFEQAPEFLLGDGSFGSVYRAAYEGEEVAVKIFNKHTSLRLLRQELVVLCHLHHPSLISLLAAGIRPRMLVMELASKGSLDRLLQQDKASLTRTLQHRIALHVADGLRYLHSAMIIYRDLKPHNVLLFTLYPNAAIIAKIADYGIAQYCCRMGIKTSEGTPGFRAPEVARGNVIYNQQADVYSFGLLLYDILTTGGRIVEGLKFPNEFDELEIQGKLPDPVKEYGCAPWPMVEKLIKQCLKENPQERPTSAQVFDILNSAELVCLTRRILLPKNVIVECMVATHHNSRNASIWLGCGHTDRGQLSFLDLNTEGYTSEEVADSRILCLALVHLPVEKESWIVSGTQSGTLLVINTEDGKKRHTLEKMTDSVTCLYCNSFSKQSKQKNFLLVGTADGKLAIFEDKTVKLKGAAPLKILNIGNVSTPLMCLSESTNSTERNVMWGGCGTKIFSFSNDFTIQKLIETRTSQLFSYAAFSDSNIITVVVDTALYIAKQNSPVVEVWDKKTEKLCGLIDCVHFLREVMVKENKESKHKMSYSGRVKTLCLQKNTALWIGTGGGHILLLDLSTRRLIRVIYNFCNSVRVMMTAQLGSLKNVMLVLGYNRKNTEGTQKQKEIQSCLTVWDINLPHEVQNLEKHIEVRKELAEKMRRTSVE
UniProt Q13158: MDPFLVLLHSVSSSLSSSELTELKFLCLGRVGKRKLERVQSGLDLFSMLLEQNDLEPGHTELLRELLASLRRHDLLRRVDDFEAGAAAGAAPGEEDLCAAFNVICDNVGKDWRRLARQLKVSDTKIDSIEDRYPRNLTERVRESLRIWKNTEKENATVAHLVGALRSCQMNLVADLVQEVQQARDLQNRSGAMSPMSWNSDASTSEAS

Key:
[1] = target: Flag-tagged I2020T-LRRK2 (human) (UniProt Q5S007); test: co-IP; HEK293T co-expressing Flag-LRRK2 and V5-FADD (4:1) for 72 h; 500 ug clarified lysate (IP lysis buffer: 20 mM HEPES, 150 mM NaCl, 0.1% NP-40, 2 mM EGTA, 2 mM MgCl2, 10% glycerol) incubated overnight with Flag-conjugated resin; eluate blotted for V5 and Flag
[2] = target: Flag-tagged wild type LRRK2 (leucine-rich repeat kinase 2) (human) (UniProt Q5S007); test: as above
[3] = target: Flag-tagged A211V-LRRK2 (human) (UniProt Q5S007); test: as above
[4] = target: Flag-tagged I2020T-LRRK2 (human) (UniProt Q5S007); test: ELISA; 15 ug clarified lysate of HEK293T co-expressing Flag-LRRK2 and V5-FADD bound to Flag-coated ELISA plates 2 h at 37 C; washed (50 mM Tris, 150 mM NaCl, 0.1% Tween-20); co-captured V5-FADD detected with anti-V5, normalised to captured LRRK2
[5] = target: Flag-tagged wild type LRRK2 (leucine-rich repeat kinase 2) (human) (UniProt Q5S007); test: as above
[6] = target: Flag-tagged A211V-LRRK2 (human) (UniProt Q5S007); test: as above
[7] = target: Flag-tagged R1441C-LRRK2 (human) (UniProt Q5S007); test: as above
[8] = target: Flag-tagged G2019S-LRRK2 (human) (UniProt Q5S007); test: as above
[9] = target: Flag-tagged K544E-LRRK2 (human) (UniProt Q5S007); test: as above
[10] = target: Flag-tagged T1410M-LRRK2 (human) (UniProt Q5S007); test: as above

Measured: binding

Full length V5-tagged FADD (from UniProt Q13158 1-208)
binds: all assays above
